Test results from patent US20230355581A1, “METHODS OF TREATMENT FOR MELANOMA” (THE BOARD OF REGENTS OF THE UNVERSITY OF TEXAS SYSTEM, priority 2020, published 2023).
At least one structure is not confirmed: it was looked up by name or label, or the drawing left a doubt.

Tested on: BRAF WT M405 melanoma tumor cell model
Conditions: M405, 20 mg/kg PO daily
Protocol: Cells were subcutaneously implanted at 3 million cells per mice with matrigel in the lower back of the mice. Once the tumors were palpable (150-200 mm^3), the mice were randomized and drug treatment was initiated. The mice were treated with vehicle control, 20 mg/kg sunitinib and 20 mg/kg SU11652. The mice were treated with drugs daily for the duration of the experiment. Tumor sizes were assessed twice weekly using caliper measurement, and tumor volume was calculated using the formula (length×width^2×π)/6. Mice were euthanized when the tumor volume exceeded 1250 mm^3 or when necessary for animal welfare. […]
6-8 week old Nod-Scid IL2Rγ KO mice (NSG) were implanted at a single subcutaneous site with 3×10^6 A375 or M405 melanoma cells (FIGS. 6 and 9, respectively) in matrigel (0.2 ml). […] Mice were weighed daily and tumors were measured with calipers twice weekly. Tumor volume was calculated as (L×W^2×pi)/6. […]
Tumor growth was evaluated as described in Evans (Evans et al., Cancer Immunol Res. 2015 June; 3(6):689-701). Time to endpoint (TTE) was determined by extrapolating the day on which tumors reached 1250 mm^3 from log-transformed tumor growth data sets. […] The median TTE was calculated for the group and tumor growth delay (TGD) defined as the increase in the median TTE in a treatment group compared to the control group, using the formula: % TGD=((T−C)/C)×10. […]

CCN(CC)CCNC(=O)c1c(C)[nH]c(/C=C2\C(=O)Nc3ccc(F)cc32)c1C [sunitinib, Sunitinib, reference compound]
tumor growth (tumor volume): did not result in a similar reduction in tumor volume
